Test [1] concerns the target T1, Rubicon, human, endogenous (human (endogenous in THP-1 and colon)) (UniProt Q92622).
T1 sequence: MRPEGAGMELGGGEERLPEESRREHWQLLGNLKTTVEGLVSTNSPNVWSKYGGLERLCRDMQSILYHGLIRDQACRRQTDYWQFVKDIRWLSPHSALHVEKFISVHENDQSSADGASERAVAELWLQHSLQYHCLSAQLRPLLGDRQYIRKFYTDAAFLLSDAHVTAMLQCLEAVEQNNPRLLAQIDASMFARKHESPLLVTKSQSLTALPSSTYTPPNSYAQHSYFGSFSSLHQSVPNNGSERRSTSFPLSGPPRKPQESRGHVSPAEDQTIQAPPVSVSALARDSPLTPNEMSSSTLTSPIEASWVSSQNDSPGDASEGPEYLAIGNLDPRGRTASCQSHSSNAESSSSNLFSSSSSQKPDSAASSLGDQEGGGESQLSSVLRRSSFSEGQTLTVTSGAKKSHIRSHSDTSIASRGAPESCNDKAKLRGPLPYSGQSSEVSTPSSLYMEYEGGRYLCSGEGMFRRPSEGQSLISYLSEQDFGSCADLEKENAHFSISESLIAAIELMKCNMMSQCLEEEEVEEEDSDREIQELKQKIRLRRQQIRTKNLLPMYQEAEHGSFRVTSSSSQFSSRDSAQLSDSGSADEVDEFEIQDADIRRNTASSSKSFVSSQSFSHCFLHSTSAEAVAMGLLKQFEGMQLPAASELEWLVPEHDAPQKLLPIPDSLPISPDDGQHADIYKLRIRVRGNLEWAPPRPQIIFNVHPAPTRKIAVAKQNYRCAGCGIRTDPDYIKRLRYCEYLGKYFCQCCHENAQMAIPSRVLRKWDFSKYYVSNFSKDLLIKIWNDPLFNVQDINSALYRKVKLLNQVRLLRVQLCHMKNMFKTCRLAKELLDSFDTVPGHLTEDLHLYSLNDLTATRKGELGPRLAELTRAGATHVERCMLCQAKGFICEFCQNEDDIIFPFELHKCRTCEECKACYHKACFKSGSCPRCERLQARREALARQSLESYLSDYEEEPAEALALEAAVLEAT
Put plainly: co-IP; colon of ulcerative colitis patients, cytoplasmic and mitochondrial fractions; IP with anti-Rubicon, IB with anti-p22phox and anti-Rubicon.

Test [2] concerns the target T1, Rubicon, human, endogenous (human (endogenous in THP-1 and colon)). Put plainly: co-IP; colon of healthy controls (human normal), cytoplasmic and mitochondrial fractions; IP with anti-Rubicon, IB with anti-p22phox and anti-Rubicon.
Test [3] has as its target T2, full-length mouse Rubicon expressed from adenovirus (Ad-Rubicon) (mouse) (UniProt Q80U62).
T2 sequence: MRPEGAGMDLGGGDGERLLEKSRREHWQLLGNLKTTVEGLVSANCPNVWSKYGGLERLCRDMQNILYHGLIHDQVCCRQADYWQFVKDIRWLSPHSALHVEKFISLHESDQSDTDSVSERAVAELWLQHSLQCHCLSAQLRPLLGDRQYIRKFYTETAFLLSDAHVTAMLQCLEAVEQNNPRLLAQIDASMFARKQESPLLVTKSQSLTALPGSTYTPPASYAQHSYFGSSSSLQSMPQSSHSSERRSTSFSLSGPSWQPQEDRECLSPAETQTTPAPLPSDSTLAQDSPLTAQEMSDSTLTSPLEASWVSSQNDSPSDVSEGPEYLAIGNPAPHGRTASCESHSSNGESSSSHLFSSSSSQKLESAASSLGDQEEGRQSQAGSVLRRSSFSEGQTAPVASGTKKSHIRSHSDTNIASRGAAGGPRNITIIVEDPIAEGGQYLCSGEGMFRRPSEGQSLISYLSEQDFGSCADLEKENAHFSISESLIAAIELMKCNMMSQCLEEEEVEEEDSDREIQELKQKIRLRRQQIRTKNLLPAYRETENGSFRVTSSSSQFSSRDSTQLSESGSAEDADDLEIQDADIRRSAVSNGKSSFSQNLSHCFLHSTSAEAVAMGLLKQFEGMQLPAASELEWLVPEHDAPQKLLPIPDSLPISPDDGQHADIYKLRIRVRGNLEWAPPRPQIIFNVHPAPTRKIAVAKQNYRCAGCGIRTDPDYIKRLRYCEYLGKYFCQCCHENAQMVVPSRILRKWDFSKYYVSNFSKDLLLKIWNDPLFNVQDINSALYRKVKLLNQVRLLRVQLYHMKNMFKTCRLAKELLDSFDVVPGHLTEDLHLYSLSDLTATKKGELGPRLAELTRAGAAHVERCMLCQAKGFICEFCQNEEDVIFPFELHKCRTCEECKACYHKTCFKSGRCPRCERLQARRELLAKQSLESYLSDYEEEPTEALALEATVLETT
Put plainly: co-IP; IP with anti-Rubicon, IB with anti-p22phox; BMDM lysates, cytosolic and mitochondrial fractions, NP-40 buffer; cells transduced with Ad-Vector, Ad-Rubicon or Ad-shRubicon; treated with LPS (100 ng/mL) for indicated times, LPS-primed plus ATP (1 mM, 30 min) or DSS (3%, 18 h), with or without Mito-TIPTP (1, 10, 100 nM).

Test [4] deals with T3, Run/cysteine-rich-domain-containing Beclin1-interacting autophagy protein (Rubicon), mouse, endogenous (mouse (endogenous in BMDMs and colon)) (UniProt Q80U62).
T3 sequence: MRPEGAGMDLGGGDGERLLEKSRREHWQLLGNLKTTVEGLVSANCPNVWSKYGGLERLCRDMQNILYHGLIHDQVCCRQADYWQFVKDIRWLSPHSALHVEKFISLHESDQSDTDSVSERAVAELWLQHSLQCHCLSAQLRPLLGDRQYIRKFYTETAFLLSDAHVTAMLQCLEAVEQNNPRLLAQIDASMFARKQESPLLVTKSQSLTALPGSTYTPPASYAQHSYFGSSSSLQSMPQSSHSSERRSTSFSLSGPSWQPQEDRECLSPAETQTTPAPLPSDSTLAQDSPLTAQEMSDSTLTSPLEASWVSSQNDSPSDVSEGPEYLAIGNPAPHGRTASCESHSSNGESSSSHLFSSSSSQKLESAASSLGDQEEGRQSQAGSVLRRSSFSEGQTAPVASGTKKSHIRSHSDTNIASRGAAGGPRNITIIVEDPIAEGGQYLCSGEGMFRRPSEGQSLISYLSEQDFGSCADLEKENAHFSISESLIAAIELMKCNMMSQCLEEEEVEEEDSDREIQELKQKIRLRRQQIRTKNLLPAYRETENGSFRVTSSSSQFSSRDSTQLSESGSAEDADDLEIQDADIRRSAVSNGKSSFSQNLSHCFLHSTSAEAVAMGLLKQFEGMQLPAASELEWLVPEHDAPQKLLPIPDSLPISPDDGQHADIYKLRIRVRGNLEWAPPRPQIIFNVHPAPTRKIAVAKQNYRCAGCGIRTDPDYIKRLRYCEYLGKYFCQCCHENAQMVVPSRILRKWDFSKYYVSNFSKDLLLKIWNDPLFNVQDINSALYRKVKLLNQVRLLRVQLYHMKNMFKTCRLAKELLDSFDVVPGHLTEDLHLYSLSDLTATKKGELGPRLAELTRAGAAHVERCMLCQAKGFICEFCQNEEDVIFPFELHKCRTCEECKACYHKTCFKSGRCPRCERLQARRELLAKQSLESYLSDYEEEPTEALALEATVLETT
The test is described as above.

The target in test [5] is T3, Run/cysteine-rich-domain-containing Beclin1-interacting autophagy protein (Rubicon), mouse, endogenous (mouse (endogenous in BMDMs and colon)). Put plainly: co-IP; mouse colon (3% DSS colitis model, Ad-vector or Ad-shRubicon, vehicle or Mito-TIPTP); IP with anti-Rubicon, IB with anti-p22phox and anti-Rubicon.

These are yes or no findings as the source states them, for the method shown. In cells and extracts the contact can be indirect. Some binding calls cover weakened binding; strength is not graded here. For some assays here: Where a sequence is shown, tags or fusion partners need not be part of it.

B1: p22phox (CYBA), human, endogenous (protein, UniProt P13498 1-195)
chain: MGQIEWAMWANEQALASGLILITGGIVATAGRFTQWYFGAYSIVAGVFVCLLEYPRGKRKKGSTMERWGQKYMTAVVKLFGPFTRNYYVRAVLHLLLSVPAGFLLATILGTACLAIASGIYLLAAVRGEQWTPIEPKPRERPQIGGTIKQPPSNPPPRPPAEARKKPSEEEAAVAAGGPPGGPQVNPIPVTDEVV
B1: the figures for the binding result in test [1] and in test [2] were “binds” and “no binding (condition: colon lysates of healthy controls)”, respectively.

B2: p22phox (cytochrome b-245 light chain, CYBA), mouse, endogenous (protein, UniProt Q61462 1-192)
chain: MGQIEWAMWANEQALASGLILITGGIVATAGRFTQWYFGAYSIAAGVLICLLEYPRGKRKKGSTMERCGQKYLTSVVKLFGPLTRNYYVRAALHFLLSVPAGFLLATILGTVCLAIASVIYLLAAIRGEQWTPIEPKPKERPQVGGTIKQPPTNPPPRPPAEVRKKPSEGEEEAASAGGPQVNPMPVTDEVV
With B2, the binding entry in test [3], in test [4] and in test [5] was “binds” throughout.

These data come from PMC8750874.
